For the assay, the system named is P388 leukemia ip, CD2F1 mice, survival T/C. Kind of assay: NCI In Vivo Anticancer Drug Screen. Data for tumor model P388 Leukemia (intraperitoneal) in CD2F1 (CDF1) mice. To be noted: T/C endpoint: median survival time, higher T/C = longer survival.
Where [1] appears, read: dose: 100.0 mg/kg/injection, schedule: Q01DX009 (ip), vehicle: saline.
Setting [2] is: dose: 200.0 mg/kg/injection, schedule: Q01DX005 (ip), vehicle: saline with Tween-80.
Setting [3] is: dose: 240.0 mg/kg/injection, schedule: Q01DX005 (ip), vehicle: saline with Tween-80.
[4] abbreviates: dose: 200.0 mg/kg/injection, schedule: Q01DX009 (ip), vehicle: saline with Tween-80.
Setting [5] is: dose: 100.0 mg/kg/injection, schedule: Q01DX009 (ip), vehicle: saline with Tween-80.
The mark [6] stands for this setting: dose: 50.0 mg/kg/injection, schedule: Q01DX009 (ip), vehicle: Klucel (hydroxypropylcellulose) (HPC).
[7] abbreviates: dose: 100.0 mg/kg/injection, schedule: Q01DX009 (ip), vehicle: Klucel (hydroxypropylcellulose) (HPC).
The mark [8] stands for this setting: dose: 200.0 mg/kg/injection, schedule: Q01DX009 (ip), vehicle: Klucel (hydroxypropylcellulose) (HPC).

The list shows only some results of the screen, not a fair sample: it gathers tests that were run many times, whatever their T/C, doses with no T/C, and many T/C values between a quarter and a half above the control. Other doses and runs of a compound stand elsewhere. T/C gives the treated animals as a percentage of the vehicle group. Some doses have a count of surviving animals in place of a T/C: the source files T/C as zero there, which appears to mark a toxic dose or a test without result, not a measured value. Some doses without a T/C left all or most animals alive at the check, yet need not have been tolerated: the source hardly ever lists a survival T/C far under the control, and the zero likely stands for such cases as well. Survivors were counted at the toxicity check, usually on the fifth day, unless a day is given; later deaths do not show. Schedule codes are those of the source, read here as Q, the interval in days (D) or hours (H), X, the number of doses. Some doses were run more than once; the results are listed from low to high. Where survival is the endpoint, the PubChem record calls one and a half times the control and up active, and a quarter to a half above the control has no call in these data; cut-offs in other NCI protocols can differ. Signs of the kind (2×) give the number of equal values in this list. Some T/C values carry the count of animals alive at the toxicity check (mostly the fifth day); without a count, all were alive then.

In the case of `C[CH2][Sn]=[O].c1cc[c]([Ge]([c]2ccccc2)[c]2ccccc2)cc1`, the T/C under setting [1] is 125 % of control.

Take `N#CC(=Nc1ccc(F)cc1F)C1=C(O)c2ccccc2C1=O`: the survivor count was 1 of 5 (dose: 100.0 mg/kg/injection, schedule: Q01DX005 (ip), vehicle: saline with Tween-80) and 0 of 5 under setting [2].

As to `CCN(CC)CCOc1ccc(C)c(C)c1`, the survivor count under setting [2] was 0 of 6.

With `O=C1N(CCc2ccccc2)CCCS1(=O)=O`, under setting [2], the survivor count is 0 of 6.

As for `O=C(COc1ccc(Cl)cc1)NN1CCCCCC1`, the survivor count (dose: 30.0 mg/kg/injection, schedule: Q01DX005 (ip), vehicle: Klucel (hydroxypropylcellulose) (HPC)) is 3 of 6; the survivor count (dose: 60.0 mg/kg/injection, schedule: Q01DX005 (ip), vehicle: Klucel (hydroxypropylcellulose) (HPC)) is 0 of 6; the survivor count (dose: 120.0 mg/kg/injection, schedule: Q01DX005 (ip), vehicle: Klucel (hydroxypropylcellulose) (HPC)) is reported as 0 of 6; the survivor count (dose: 240.0 mg/kg/injection, schedule: Q01DX005 (ip), vehicle: Klucel (hydroxypropylcellulose) (HPC)) is given as 0 of 6.

In the case of `COC(=O)c1nc(N)nc(C(=O)OC)c1C(=O)Cc1ccccc1`, under setting [3], the survivor count is 0 of 6.

Turning to `NCc1ccc(Cc2ccc(CN)cc2)cc1`, the survivor count under setting [4] is recorded as 0 of 6.

As to `Clc1ccc(N=C(SSC(Cl)(Cl)Cl)SSC(Cl)(Cl)Cl)cc1`, the T/C by setting is: (dose: 50.0 mg/kg/injection, schedule: Q01DX009 (ip), vehicle: saline with Tween-80) 133 % of control; under setting [5], 145 % of control.

Consider `NC(=O)CNCC1Cc2ccccc21` (stereo unspecified), for which the survivor count (dose: 240.0 mg/kg/injection, schedule: Q01DX005 (ip), vehicle: saline) is 2 of 6.

Take `O=C(O)C(CO)NC(=O)C1CCCN1C(=O)OCc1ccccc1` (stereo unspecified): the survivor count (dose: 200.0 mg/kg/injection, schedule: Q01DX005 (ip), vehicle: saline) is recorded as 5 of 6.

On to `CCCCCCCCCCCCCCCCC1=C(C(=O)OC)NC(N)=NC1O` (stereo unspecified), for which the survivor count under setting [3] is 0 of 6.

Turning to `CCOC(=O)CCC1=C(C)c2cc3[n-]c(cc4nc(cc5[n-]c(cc1n2)c(CCC(=O)OCC)c5C)C=C4C)cc3C.[Ni+2]`, where the note is “dose: 200.0 mg/kg/injection, schedule: Q01DX005 (ip), vehicle: Klucel (hydroxypropylcellulose) (HPC)”, the survivor count is 5 of 5.

For `O=C1NCC(Br)C(=O)N1` (stereo unspecified), the T/C reads like this: (dose: 50.0 mg/kg/injection, schedule: Q01DX009 (ip), vehicle: other) 127 % of control; (dose: 100.0 mg/kg/injection, schedule: Q01DX009 (ip), vehicle: other) 129 % of control; (dose: 200.0 mg/kg/injection, schedule: Q01DX009 (ip), vehicle: other) 137 % of control; (dose: 200.0 mg/kg/injection, schedule: Q01DX009 (ip), vehicle: saline + Tween-80 + alcohol) 128 % of control. Moreover, for the setting “dose: 400.0 mg/kg/injection, schedule: Q01DX009 (ip), vehicle: saline + Tween-80 + alcohol”, the survivor count was 5 of 6.

Take `N/C(CCSc1ccccc1N=Cc1ccccc1O)=N/O`: the survivor count is on record as 0 of 6 (dose: 100.0 mg/kg/injection, schedule: Q01DX009 (ip), vehicle: olive oil, sesame oil, peanut oil); 0 of 6 (dose: 200.0 mg/kg/injection, schedule: Q01DX009 (ip), vehicle: olive oil, sesame oil, peanut oil); 0 of 6 (dose: 400.0 mg/kg/injection, schedule: Q01DX009 (ip), vehicle: olive oil, sesame oil, peanut oil).

For the compound `COc1cc(C=C2C(=O)C=CC2=O)ccc1O`, the survivor count was 0 of 6 (dose: 25.0 mg/kg/injection, schedule: Q04DX002 (ip), vehicle: saline with Tween-80); 0 of 6 (dose: 50.0 mg/kg/injection, schedule: Q04DX002 (ip), vehicle: saline with Tween-80); 0 of 5 (dose: 50.0 mg/kg/injection, schedule: Q04DX002 (ip), vehicle: saline); 0 of 6 (dose: 100.0 mg/kg/injection, schedule: Q04DX002 (ip), vehicle: saline with Tween-80); 0 of 5 (dose: 100.0 mg/kg/injection, schedule: Q04DX002 (ip), vehicle: saline).

Take `CC(=O)N=C1C=C(NC(C)=O)C(=O)c2ccccc21`: under setting [6], the T/C is 126 % of control and the survivor count is recorded as 5 of 6. Further, the survivor count under setting [7] is 1 of 6.

Consider `C=CCOc1nc(OCC=C)nc(OCC=C)n1`, for which the survivor count (dose: 400.0 mg/kg/injection, schedule: Q01DX009 (ip), vehicle: saline with Tween-80) was 1 of 6.

Take `CCC1CN2CCc3cc(OC)c(OC)cc3C2CC1Cl` (stereo unspecified): the survivor count by setting is: under setting [5], 3 of 6; under setting [4], 0 of 6.

On to `CCCCCCCCCCCCCCCC[N+]1([O-])CCCCC1`, for which the survivor count is given as 4 of 6 under setting [1] and 0 of 6 (dose: 200.0 mg/kg/injection, schedule: Q01DX009 (ip), vehicle: saline).

As for `OC(c1ccccc1)(C(F)(F)F)C(F)(F)F`, the survivor count under setting [4] is on record as 4 of 6.

On to `CCCNC(=O)OCc1c(COC(=O)NCCC)c(-c2ccc(Cl)c(Cl)c2)n2c1CCC2`, for which the T/C (dose: 5.0 mg/kg/injection, schedule: Q01DX009 (ip), vehicle: distilled water + Tween-80) is 125 % of control (2×); the T/C (dose: 10.0 mg/kg/injection, schedule: Q01DX009 (ip), vehicle: distilled water + Tween-80) is 134 and 145 % of control; the T/C (dose: 20.0 mg/kg/injection, schedule: Q01DX009 (ip), vehicle: distilled water + Tween-80) is 136 % of control; the T/C (dose: 25.0 mg/kg/injection, schedule: Q01DX009 (ip), vehicle: distilled water + Tween-80) was 141 % of control. Further, where the note is “dose: 200.0 mg/kg/injection, schedule: Q01DX009 (ip), vehicle: distilled water + Tween-80”, the survivor count is listed as 0 of 6.

Regarding `O=C(Oc1ccc[nH]c1=O)C12CC3CC(CC(C3)C1)C2`, the survivor count reads like this: (dose: 50.0 mg/kg/injection, schedule: Q01DX009 (ip), vehicle: saline) 6 of 6; under setting [1], 6 of 6.

Consider `CCOC(=O)CC1CC2c3cc(OC)c(OC)cc3CCN2CC1CC` (stereo unspecified), for which the survivor count by setting is: under setting [7], 5 of 6; under setting [8], 2 of 6.

Regarding `COc1ccc2nc3cc(Cl)ccc3c(NCCOCCO)c2c1`, the survivor count under setting [4] is 4 of 6.

As to `O=C1C=CC(=Nc2ccc(N(CCCl)CCCl)cc2)C=C1`, under setting [8], the T/C was 133 % of control.

As for `CC1(C)N=C(N)N=C(N)N1c1ccccc1`, the survivor count was 1 of 6 and 3 of 6 (dose: 100.0 mg/kg/injection, schedule: Q04DX003 (ip), vehicle: saline); 0 of 6 (dose: 200.0 mg/kg/injection, schedule: Q04DX003 (ip), vehicle: saline); 0 of 6 (dose: 400.0 mg/kg/injection, schedule: Q04DX003 (ip), vehicle: saline).

Consider `Nc1ccccc1/C=C/c1ccnc2ccccc12`, for which the T/C was 127 % of control (dose: 25.0 mg/kg/injection, schedule: Q01DX001 (ip), vehicle: Klucel (hydroxypropylcellulose) (HPC)); 125 % of control (dose: 50.0 mg/kg/injection, schedule: Q01DX001 (ip), vehicle: Klucel (hydroxypropylcellulose) (HPC)); 145 % of control [4 of 6 alive] (dose: 100.0 mg/kg/injection, schedule: Q01DX001 (ip), vehicle: Klucel (hydroxypropylcellulose) (HPC)). In addition, the survivor count (dose: 200.0 mg/kg/injection, schedule: Q01DX001 (ip), vehicle: Klucel (hydroxypropylcellulose) (HPC)) is on record as 0 of 6.

For `O=C(Nc1ccc(Cl)cc1)Nc1ccc(Cl)nn1`, the survivor count is listed as 5 of 6 (dose: 25.0 mg/kg/injection, schedule: Q04DX002 (ip), vehicle: Klucel (hydroxypropylcellulose) (HPC)); 6 of 6 (dose: 200.0 mg/kg/injection, schedule: Q04DX002 (ip), vehicle: Klucel (hydroxypropylcellulose) (HPC)); 6 of 6 (dose: 400.0 mg/kg/injection, schedule: Q04DX002 (ip), vehicle: Klucel (hydroxypropylcellulose) (HPC)).

On to `C1CCC([N-]C2CCCCC2)CC1.C1CCC([N-]C2CCCCC2)CC1.[Cl][Pt+2][Cl]`, for which, under “dose: 400.0 mg/kg/injection, schedule: Q01DX001 (sc), vehicle: other”, the survivor count is given as 3 of 6.

For the origin of these results see PubChem BioAssay AID330 (DTP/NCI, 2004).
